These are yes or no findings as the source states them, for the method shown.
Molecular target: recombinant human MT1-MMP catalytic domain (human) (UniProt P50281)
Assay: condition: only with free excess peptide (1 mmol/L) added; atomic force microscopy (single-molecule recognition force spectroscopy); peptide covalently on the AFM tip through NHS-PEG18-aldehyde; MT1-MMP immobilised on APTES-treated mica; PBS; 25 °C; control with free excess peptide (1 mmol/L); both purified

| Binder | binding |
| --- | --- |
| HWKHLHNTKTFL [MT1-AF7p] | no binding |
| HWKRLHNTKTFL [MT1-AF7p-H4R] | no binding |
| HWKKLHNTKTFL [MT1-AF7p-H4K] | no binding |
